In all, about 52,000 sequences went through this assay and about 210 (0.4%) were called active.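 The calls were made as follows: active = gene whose silencing raises cell survival under the drug, median off-target-corrected z-score across its silencing RNAs 2 or more; inactive = the rest.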 The list shows a part of the results.

The values below come from PubChem BioAssay AID1347423 (Functional Genomics Laboratory (NCATS/FGL), 2020).

A short description of the assay: Resistance to Poly (ADP-Ribose) Polymerase inhibitor: Gene Identification via Genome-wide siRNA Screen. Conditions: mouse BRCA2 R2336H ES cells, olaparib, CellTiter-Glo viability; hits give high values. The essentials:
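Genome-wide siRNA screen (3 siRNAs/gene, 20 nM) in mouse ES cells carrying hypomorphic BRCA2 R2336H; olaparib 500 nM added 48 h post-transfection, CellTiter-Glo viability 72 h later. Normalized to plate-median negative control; MAD z-scores, gene median, seed-adjusted.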
For the sequence GGCCAAGACACCCUUGUUUTT against Zfp524, the z-score is inactive: -0.967.
For the sequence CGAGCAUGCUGAAAAGACCTT against Steap, the z-score was inactive: -0.19.
Then “GGUUUUUGUGGCUGAUCUUTT against A230078I01Rik”, with inactive: 2.53; and GCUUCUGAAUUACAAAGCUTT against Cmah, with inactive: 0.955; and GGGAAUGUGUGCCUUGUUGTT against Olfr16, with inactive: -1.54.
The value for GGACCCUCUGCUCUUCAUUTT against Slc4a9 was inactive: 1.39; that for GCGUUCACGGUCAAAAAAUTT against Fbxw10 was inactive: 0.841; that for “GCGCAACUAACUCACAACATT against 4930556L07Rik” was inactive: 0.627.
Then GGCGAACACUAAAAAGGCATT against AU021107, with inactive: 0.434.
On to CGAUACCUUUAGUUGACUATT against Hcrtr2, for which the z-score is inactive: -1.21.
Consider GCUUCUCUCUUCAUCUAUGTT against Olfr524, for which the z-score is inactive: 0.0334.
The value for GGGUGUACUGAACUUUGUGTT against Gcn5l2 was inactive: -1.53; that for “CCUUUAGCAUAAUAGGAAUTT against 9230109A22Rik” was inactive: 1.82; that for “GCUGGAAUUCUCUUGGCUGTT against MGI:3576664” was inactive: -1.53.
The value for GCAGACAUUACCCUAUAGUTT against Mtf2 was inactive: 0.677; that for GGAUGAUGACUUUGAGAAGTT against Map2k1 was inactive: 0.162.
Then GGUUGUUCGUGGACACUACTT against Rpl26, with inactive: -2.07.
In the case of GCCUGCCUACGAGAUCAACTT against Mglap, the z-score was inactive: 0.0298.
Then GGCUGUGCAUUAUAUCCUUTT against Lhfp, with inactive: -0.402; and CCUGGUGUUCGUGUACCUGTT against Cdk5r2, with inactive: 0.853.
Take GGAUAUAGAUCUGAUUGACTT against Nfe2l1: the z-score is inactive: 0.85.
GGAUUCAUUCAACCCAUGGTT against Olfr1441: the z-score was inactive: 1.52.
For “CGACUGUGACAAAAACAUGTT against 2010109I03Rik”, the z-score is inactive: 0.687.
Turning to GCUUCCUUCUGCUAGAUGGTT against Oxct2a, the z-score was inactive: 0.167.
The value for “GGCAUCCUUGAGCUUUAAATT against 1110001M19Rik” was inactive: 0.632; that for “GCCAUCUCUAUGUUGUUGATT against D130058I21Rik” was inactive: 0.0946; that for GAGAAUGAGUUCUGCCCAGTT against Lhb was inactive: -1.31.
For the sequence “GCAAAAUUAUCAGUGAGGATT against C330027I04Rik”, the z-score is inactive: 0.321.
Then “GGAACAGAAGUCAAGUGGATT against C730027J19Rik”, with inactive: 1.75.
As to GGGAAACUCAAUGUAGAUGTT against Arhgap5, the z-score was inactive: -0.272.
Regarding GGCUUGUUAAUGAAUGCACTT against Ankrd9, the z-score was inactive: 0.954.
The value for GGUGUACCAGCAAACUUUUTT against Nhlh2 was inactive: -0.782; that for GGUGCUAAAGUCAAAAAACTT against Fras1 was inactive: 1.58; that for GCUUAAAGUGCAUCGCCAATT against Stc1 was inactive: 0.964.
Regarding GGAUGAUACAUGUUUGAAUTT against V1ra1, the z-score was inactive: -0.128.
Turning to GCAGUGUAUUGGUAAUCAATT against Olfr630, the z-score is inactive: 0.454.
The value for GGUACUCAAGGUUCAGACCTT against Tcfe3 was inactive: 0.285.
Then GGUCUACCACUUCAACUUCTT against Sema7a, with inactive: 1.19.
As to GGUCUACCCAUGACCUACUTT against Nme4, the z-score was inactive: -1.13.
In the case of GCAAUGAACUAUGAAGGCATT against Npm1, the z-score is active: 0.811.
Turning to GGACCUGUCCAUCUUCAUCTT against Scn1b, the z-score is inactive: 2.1.
Turning to CCUUUGAAUCCCAGGUUCATT against Lmo1, the z-score was inactive: 1.16.
With CCAGUAUGCACAAAUUUAATT against Ube1c, the z-score was inactive: 0.19.
Then AAAUUCUGCCUGACGAGAUTT against Scgb3a1, with inactive: 2.05.
The value for GGUGAGAACUCAGAUAAGCTT against Txk was inactive: 0.279.
As to CGACCUGAAAUCUCAAGUUTT against Clecsf1, the z-score was inactive: 0.834.
Then GGAUGUGAAGAUCUAUCUUTT against Itm2c, with inactive: -0.29.
GGCAAUCCCAUAGAGGCUGTT against Smcr7: the z-score was inactive: -0.874.
Then GUUGUAAUUGGUUAUGUGCTT against Dscr5, with inactive: 1.65.
On to GCAAUCUCCAACAAACUCUTT against Gemin7, for which the z-score was inactive: 0.0463.
With GGCAGAAUCCAGCUCAGUUTT against BC038286, the z-score was inactive: -1.27.
Then GGAGGGAAGCGAGAGUUUUTT against Emilin2, with inactive: 0.588; and “GGAACUUUGUUAAAAUGGATT against 4932414N04Rik”, with inactive: 0.31; and “GGAUGGACCUUCAGAAAAGTT against 1500001A10Rik”, with inactive: -2.16.
Then “GGAAGACAGGCAUAAAAAATT against A230035L05Rik”, with inactive: 0.713; and GGUGAAGAAAGCACUGUUUTT against Olfr980, with inactive: 0.273; and “GGAGCGAGAAGCUUUAGAATT against D19Ertd721e”, with inactive: -0.0343.
For GGCAACUGGAAAUCUGGGATT against Adar, the z-score is inactive: 0.456.
On to GAAGAUGCCACGCUAAAAATT against Adam34, for which the z-score is inactive: 2.14.
Consider CGGAAACAAUGCAAUGGCATT against Bcl11a, for which the z-score was inactive: 1.04.
For the sequence “GCAACGAGUGUGUUUUCUGTT against A230091H23”, the z-score was inactive: 0.423.
Take GCACACUCUGUUAUAAAAUTT against Osbpl2: the z-score is inactive: 0.537.
The value for GGAAAAUGGAAUUUGGUCCTT against Il12b was inactive: 0.829; that for GGAAAGGUGACCAAGAACUTT against Igsf4b was inactive: 4.26; that for “AAUAACACGUCAGUUUAUCTT against A530064D06Rik” was inactive: 3.34.
Consider “GGCUUUUCUUACAAAGCAATT against 1300010K09Rik”, for which the z-score was inactive: 0.109.
Consider “GGACACUUUCCAAUGGUGATT against 9330128H10Rik”, for which the z-score is inactive: 0.993.
The value for GGUAGAGAAACCUAGUGUUTT against Mtap6 was inactive: -1.07; that for “GGGUGACCUUUACGUCUUCTT against D6Ertd253e” was inactive: -0.477; that for CUACUAUAGUGUAAUGGUGTT against Psg18 was inactive: 0.695.
Then CGACUCAAUUUCUGUGGCCTT against Olfr525, with inactive: 0.952.
Then CGCCUUUAGUAAGGAUCACTT against Tube1, with inactive: 0.365.
Regarding GGUGUUCAAAAGUGGACUUTT against Pnck, the z-score is inactive: -0.745.
The value for GGACCUACAGCUGUGUGUUTT against Rgmc was inactive: -0.942.
Regarding “GGAAACAGAGACUGAAUUUTT against 5730509K17Rik”, the z-score is inactive: 1.25.
The value for GGACGUGCAGGAAAUGCAUTT against Alas1 was inactive: 0.673; that for GGAGUCCUGUAAAUGCAAUTT against Pcaf was inactive: 1.5.
Then “GGCACUUACUUCUGAGAAGTT against A230106M15Rik”, with inactive: -0.679; and CCCUAAGUCUCUAAUUGACTT against LOC271048, with inactive: 0.515.
Turning to GGACAGCUCUCUUUAGUCUTT against Erf, the z-score was inactive: 1.22.
Then GGCCAUCAUUGAGGAAUAUTT against Eif4g1, with inactive: -1.69.
Then GGAUGCUUGUGGACCUGUGTT against Olfr1123, with inactive: -0.285; and “GGAGCUUACAUGGUCCCUATT against 1700016G05Rik”, with inactive: -1.73.
The value for GGAGGAAGGCUUCCUAAAGTT against Slc25a27 was inactive: 0.459; that for GGAACAACAUUGUUCUAAATT against Fstl5 was inactive: -0.151; that for GCAUGUGAAAUCUAGAUCATT against Cks1 was inactive: 0.231.
Take “GGAUCGCUUAGUCUCAUGATT against 1110054O05Rik”: the z-score is inactive: 2.34.
Then “GCCAAUUUGGAUAUUCAUGTT against 4921517N04Rik”, with inactive: 0.872.
Turning to GGCCUUUGUGUAUAUCUAUTT against V1rj3, the z-score is inactive: -0.799.
The value for CCAAGCACGCACCAAGAUCTT against BC023296 was inactive: -0.77.
Then GCUCUGGAGGAAAAAAAUATT against Olfr1255, with inactive: -1.22; and GGUGGAGAAGAGUUUCUGCTT against Gpr132, with inactive: 0.778; and “GCUGGAAUGUAACUGUUUCTT against 2010110O04Rik”, with inactive: 2.15.
As to CAGGGCAAGGUGAUAUCUGTT against Olfr1411, the z-score is inactive: 0.0573.
The value for ACCUUUUCAAAUCUGUGCGTT against Urp was inactive: 0.1; that for GGCAAAAGACACUGUCAAUTT against Birc1c was inactive: 1.09; that for GGAACUGCUUACGAAAUACTT against Lama4 was inactive: -0.374.
Then “GGAAGUGAGGAAGUGACAUTT against 1810009N02Rik”, with inactive: -1.27; and GGGCUUCUCCUAAUUCAGATT against Armcx3, with inactive: 0.232; and GCAAUGCACCAUUAGCAGCTT against Stard8, with inactive: -2.01.
On to GGAGUUCCUAUUUAAUCCCTT against Hoxb8, for which the z-score was inactive: 1.04.
GGAUUGUGGCCUUCUUUGATT against Bcl2: the z-score is inactive: -0.758.
Consider “CCUCAUUGUGUCGUCUUACTT against C230075L19Rik”, for which the z-score was inactive: -1.31.
With “GGUCGGAUGGAUUCAAAUUTT against 1110059F07Rik”, the z-score was inactive: -2.22.
